The supplement of paper PMC10849652
Some of the results follow.

Protein sequences, listed by entry. Tags and fused reporters are not part of them. Lines headed by an entry give the natural chain unless they say otherwise; changes in a name come on top.
UniProt P25208: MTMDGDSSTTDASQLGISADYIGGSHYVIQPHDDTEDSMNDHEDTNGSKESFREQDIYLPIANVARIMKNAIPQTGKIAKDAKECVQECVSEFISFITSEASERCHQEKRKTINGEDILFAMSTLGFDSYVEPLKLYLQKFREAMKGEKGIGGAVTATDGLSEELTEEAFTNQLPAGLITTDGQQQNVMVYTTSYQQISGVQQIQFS
UniProt Q9Y639: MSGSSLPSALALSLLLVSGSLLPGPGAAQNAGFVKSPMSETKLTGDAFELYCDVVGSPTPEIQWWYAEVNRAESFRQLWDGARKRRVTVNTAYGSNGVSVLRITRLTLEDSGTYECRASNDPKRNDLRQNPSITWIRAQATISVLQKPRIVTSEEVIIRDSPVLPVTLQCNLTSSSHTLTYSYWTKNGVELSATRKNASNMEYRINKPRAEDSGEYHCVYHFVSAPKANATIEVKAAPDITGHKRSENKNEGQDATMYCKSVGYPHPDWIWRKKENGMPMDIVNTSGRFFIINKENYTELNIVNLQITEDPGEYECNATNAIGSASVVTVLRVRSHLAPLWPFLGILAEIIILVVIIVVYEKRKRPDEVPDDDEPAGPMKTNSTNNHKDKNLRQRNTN
UniProt P15559, whole entry, looked up: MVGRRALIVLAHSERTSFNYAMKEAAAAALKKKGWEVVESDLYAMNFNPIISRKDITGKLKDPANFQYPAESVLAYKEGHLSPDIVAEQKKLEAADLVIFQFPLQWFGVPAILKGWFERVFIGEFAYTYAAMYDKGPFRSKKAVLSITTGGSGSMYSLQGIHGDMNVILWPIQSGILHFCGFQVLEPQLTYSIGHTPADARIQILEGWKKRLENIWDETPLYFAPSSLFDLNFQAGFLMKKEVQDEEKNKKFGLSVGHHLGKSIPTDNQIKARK
UniProt Q14934: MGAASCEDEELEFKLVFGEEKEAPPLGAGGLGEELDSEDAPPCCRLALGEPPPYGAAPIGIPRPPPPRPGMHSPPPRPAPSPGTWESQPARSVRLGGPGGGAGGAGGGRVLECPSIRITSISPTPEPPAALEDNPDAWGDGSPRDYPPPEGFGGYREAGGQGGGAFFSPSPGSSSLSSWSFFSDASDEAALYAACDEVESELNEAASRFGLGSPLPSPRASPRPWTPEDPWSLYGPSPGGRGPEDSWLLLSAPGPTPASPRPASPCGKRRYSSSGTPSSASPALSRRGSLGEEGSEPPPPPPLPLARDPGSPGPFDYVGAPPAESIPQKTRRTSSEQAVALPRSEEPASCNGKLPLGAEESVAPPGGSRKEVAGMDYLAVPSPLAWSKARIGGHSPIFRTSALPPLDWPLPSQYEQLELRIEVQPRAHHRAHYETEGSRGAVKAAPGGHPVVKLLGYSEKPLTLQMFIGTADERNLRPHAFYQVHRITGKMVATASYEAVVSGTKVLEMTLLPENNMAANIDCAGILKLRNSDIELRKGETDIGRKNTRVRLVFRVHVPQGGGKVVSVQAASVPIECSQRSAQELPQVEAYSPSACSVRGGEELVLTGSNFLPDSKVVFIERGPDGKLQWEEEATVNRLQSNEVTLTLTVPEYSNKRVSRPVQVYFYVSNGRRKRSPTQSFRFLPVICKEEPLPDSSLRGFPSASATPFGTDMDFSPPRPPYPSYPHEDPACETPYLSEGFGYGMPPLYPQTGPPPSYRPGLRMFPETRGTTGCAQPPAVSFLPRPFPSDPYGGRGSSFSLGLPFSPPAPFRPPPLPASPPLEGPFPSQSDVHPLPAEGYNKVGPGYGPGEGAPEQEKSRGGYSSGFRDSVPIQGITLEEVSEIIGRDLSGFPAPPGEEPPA
UniProt P48645: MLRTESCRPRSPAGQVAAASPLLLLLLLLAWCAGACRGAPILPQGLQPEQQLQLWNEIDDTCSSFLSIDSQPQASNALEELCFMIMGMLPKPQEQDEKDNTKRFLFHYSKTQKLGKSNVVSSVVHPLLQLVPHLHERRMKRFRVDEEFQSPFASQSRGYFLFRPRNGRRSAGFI
UniProt O60524: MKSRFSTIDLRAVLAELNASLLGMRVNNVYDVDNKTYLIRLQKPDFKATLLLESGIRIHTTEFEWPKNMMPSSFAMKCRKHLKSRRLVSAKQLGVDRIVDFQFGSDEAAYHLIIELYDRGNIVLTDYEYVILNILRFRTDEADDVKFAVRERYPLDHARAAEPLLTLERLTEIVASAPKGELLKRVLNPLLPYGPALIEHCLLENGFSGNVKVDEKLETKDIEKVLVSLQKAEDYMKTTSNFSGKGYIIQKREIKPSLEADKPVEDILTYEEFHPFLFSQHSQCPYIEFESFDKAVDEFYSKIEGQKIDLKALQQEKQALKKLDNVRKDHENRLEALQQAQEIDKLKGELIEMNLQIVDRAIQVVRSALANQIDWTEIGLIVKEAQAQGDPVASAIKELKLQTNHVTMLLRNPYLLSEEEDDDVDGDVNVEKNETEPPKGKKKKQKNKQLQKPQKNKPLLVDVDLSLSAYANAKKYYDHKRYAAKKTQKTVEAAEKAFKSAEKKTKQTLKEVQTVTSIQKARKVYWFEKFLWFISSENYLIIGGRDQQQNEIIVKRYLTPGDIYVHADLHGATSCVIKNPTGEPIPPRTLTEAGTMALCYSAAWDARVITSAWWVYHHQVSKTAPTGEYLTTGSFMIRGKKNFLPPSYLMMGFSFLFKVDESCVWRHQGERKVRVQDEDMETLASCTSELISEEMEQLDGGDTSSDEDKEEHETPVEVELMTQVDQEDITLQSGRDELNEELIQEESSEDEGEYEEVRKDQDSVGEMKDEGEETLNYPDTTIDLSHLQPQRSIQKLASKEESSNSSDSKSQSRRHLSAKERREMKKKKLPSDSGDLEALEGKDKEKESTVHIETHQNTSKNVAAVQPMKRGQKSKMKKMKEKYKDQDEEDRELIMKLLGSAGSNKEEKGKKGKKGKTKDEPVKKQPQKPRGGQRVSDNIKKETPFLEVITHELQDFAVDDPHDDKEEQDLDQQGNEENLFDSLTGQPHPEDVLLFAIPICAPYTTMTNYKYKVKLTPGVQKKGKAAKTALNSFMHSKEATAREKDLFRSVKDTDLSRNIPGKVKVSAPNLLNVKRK
UniProt O60361, whole entry, looked up: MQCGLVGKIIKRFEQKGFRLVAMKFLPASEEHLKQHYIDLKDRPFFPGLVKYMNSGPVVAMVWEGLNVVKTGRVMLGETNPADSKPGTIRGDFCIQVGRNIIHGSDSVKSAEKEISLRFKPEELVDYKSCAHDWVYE
UniProt Q12857, whole entry, looked up: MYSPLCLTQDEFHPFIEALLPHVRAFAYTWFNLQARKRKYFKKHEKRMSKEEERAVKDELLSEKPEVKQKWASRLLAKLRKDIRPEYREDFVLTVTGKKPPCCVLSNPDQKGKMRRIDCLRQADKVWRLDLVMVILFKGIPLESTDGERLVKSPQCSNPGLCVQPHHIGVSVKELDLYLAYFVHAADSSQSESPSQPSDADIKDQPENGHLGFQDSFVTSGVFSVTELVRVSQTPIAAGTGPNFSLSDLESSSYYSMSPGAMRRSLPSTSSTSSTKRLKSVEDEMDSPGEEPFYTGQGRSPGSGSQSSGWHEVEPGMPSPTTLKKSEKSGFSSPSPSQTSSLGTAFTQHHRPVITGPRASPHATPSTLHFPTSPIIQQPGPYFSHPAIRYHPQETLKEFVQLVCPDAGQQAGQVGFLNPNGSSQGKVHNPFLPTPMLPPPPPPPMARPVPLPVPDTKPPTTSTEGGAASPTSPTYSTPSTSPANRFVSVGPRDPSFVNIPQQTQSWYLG
UniProt Q9UMX5: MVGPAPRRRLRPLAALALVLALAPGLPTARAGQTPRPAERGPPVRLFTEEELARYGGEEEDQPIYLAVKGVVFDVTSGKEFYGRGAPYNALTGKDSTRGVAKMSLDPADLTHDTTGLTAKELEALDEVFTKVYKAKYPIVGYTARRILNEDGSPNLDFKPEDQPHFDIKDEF
UniProt Q86X76: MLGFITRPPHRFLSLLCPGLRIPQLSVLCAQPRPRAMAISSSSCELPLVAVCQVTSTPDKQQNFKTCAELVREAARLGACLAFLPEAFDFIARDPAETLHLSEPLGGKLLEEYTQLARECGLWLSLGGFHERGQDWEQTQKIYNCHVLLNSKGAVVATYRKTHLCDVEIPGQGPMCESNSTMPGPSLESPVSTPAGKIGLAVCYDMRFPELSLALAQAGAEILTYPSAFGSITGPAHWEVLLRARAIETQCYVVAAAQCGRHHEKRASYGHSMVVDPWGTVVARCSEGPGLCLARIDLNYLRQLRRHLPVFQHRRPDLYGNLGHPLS
UniProt Q9UHC9: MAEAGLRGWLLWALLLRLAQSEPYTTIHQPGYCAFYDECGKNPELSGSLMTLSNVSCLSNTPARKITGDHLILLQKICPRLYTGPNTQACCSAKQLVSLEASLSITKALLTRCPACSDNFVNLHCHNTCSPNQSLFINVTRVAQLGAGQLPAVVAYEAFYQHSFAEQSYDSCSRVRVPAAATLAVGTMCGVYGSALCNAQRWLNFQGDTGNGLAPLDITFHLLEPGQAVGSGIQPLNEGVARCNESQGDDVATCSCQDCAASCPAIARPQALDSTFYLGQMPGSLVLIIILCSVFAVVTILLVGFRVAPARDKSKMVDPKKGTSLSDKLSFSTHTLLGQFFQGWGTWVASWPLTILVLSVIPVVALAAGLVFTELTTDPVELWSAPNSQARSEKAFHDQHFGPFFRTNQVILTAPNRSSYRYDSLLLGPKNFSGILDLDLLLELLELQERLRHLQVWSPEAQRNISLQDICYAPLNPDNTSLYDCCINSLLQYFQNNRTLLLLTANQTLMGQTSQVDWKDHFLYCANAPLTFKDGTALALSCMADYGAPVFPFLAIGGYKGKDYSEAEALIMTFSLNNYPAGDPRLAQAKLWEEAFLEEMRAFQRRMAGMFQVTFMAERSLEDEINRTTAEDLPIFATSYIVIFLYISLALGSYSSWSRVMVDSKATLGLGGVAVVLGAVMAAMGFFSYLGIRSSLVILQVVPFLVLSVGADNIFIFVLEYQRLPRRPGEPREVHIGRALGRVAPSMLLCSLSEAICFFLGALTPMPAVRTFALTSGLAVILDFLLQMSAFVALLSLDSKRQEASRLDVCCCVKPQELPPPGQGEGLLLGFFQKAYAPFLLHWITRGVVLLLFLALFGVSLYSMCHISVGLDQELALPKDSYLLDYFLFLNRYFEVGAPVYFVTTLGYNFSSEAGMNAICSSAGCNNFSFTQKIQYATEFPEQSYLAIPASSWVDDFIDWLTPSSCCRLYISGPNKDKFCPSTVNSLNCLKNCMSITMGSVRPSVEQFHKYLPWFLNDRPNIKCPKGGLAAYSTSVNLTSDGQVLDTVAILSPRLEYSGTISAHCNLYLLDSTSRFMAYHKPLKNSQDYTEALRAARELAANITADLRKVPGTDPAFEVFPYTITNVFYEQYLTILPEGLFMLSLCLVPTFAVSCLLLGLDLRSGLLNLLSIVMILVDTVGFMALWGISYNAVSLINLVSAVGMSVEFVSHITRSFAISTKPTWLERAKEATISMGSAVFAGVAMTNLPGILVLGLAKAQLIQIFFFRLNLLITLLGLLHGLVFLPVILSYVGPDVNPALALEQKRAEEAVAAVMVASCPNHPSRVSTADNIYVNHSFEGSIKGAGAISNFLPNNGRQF
UniProt P06748, whole entry, looked up: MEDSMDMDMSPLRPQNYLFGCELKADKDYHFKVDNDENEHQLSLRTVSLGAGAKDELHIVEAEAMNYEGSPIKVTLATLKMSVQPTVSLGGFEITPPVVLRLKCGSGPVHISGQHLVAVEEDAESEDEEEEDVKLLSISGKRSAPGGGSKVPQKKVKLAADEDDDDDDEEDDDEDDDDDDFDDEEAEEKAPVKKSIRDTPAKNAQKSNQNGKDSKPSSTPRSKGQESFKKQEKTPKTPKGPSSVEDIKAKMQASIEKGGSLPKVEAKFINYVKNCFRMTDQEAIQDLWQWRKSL
UniProt Q96IV0: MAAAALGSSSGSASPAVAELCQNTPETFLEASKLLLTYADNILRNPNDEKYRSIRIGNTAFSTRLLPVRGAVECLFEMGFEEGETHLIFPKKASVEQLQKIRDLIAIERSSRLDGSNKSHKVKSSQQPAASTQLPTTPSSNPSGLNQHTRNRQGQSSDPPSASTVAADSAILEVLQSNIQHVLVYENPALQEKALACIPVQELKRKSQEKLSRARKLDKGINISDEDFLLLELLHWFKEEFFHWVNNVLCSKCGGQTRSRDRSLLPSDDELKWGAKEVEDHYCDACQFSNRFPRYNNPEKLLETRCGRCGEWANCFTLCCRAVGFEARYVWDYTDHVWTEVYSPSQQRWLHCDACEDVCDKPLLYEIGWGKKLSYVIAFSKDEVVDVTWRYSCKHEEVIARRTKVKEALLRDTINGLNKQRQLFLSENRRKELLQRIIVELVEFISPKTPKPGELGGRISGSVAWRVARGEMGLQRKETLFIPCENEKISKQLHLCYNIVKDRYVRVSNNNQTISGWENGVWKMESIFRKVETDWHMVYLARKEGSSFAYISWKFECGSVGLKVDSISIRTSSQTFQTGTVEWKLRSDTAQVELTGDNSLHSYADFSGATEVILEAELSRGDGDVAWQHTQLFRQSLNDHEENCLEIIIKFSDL

Experiments:
Assay in all cases: log2 fold change, soluble protein after heating vs DMSO (PISA); higher = thermal stabilisation; K562 cells, 10 uM, 30 min; active = over 0.2 and 3.5 SD of the protein, either way, in both replicates (recomputed)
[1] = compound: C1=CC=C(C=C1)[C@H](COC2=CC3=C(C=C2)NC(=O)N3)NC(=O)C4=CC=CN(C4=O)CC5=CC(=C(C=C5)F)F
Summary of the method: (§1)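 K562 cells at 2×10^6 cells/mL were treated with 10 μM compound for 30 min. Aliquots were heated for 3 min across 48°C-58°C, pooled, and extracted in PBS with 0.5% NP-40 at 4°C; soluble protein was the supernatant after 21,000xg for 90 min. Soluble protein was quantified by TMTpro 16plex LC-MS/MS with channel sums equalised, and reported as log2 fold change in thermal stability against DMSO controls, with values from duplicates.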

[2] = compound: CC1=C(SC2=C1C(=N[C@H](C3=NN=C(N32)C)CC(=O)N)C4=CC=C(C=C4)Cl)C
Summary of the method: as §1

[3] = compound: CC1=C2C(=CC=C1)N=C(N(C2=O)C3=CC=CC=C3C)CN4C=NC5=C(N=CN=C54)N
Summary of the method: as §1

[4] = compound: Cc1sc2c(c1C)C(c1ccc(Cl)cc1)=N[C@@H](CC(=O)OC(C)(C)C)c1nnc(C)n1-2
Summary of the method: as §1

[5] = compound: c1ccc([C@@H]2C[C@H]2NC2CCNCC2)cc1
Summary of the method: as §1

Measured: log2 fold change

NMRAL1 (UniProt Q9HBL8)
inactive: [1] -0.12 | [2] -0.017 | [3] 0.025 | [4] -0.139 | [5] -0.094

NFYB (UniProt P25208)
inactive: [1] -0.015 | [2] -0.119 | [3] -0.165 | [4] -0.048 | [5] 0.057

NIBAN2 (UniProt Q96TA1)
inactive: [1] -0.021 | [2] 0.035 | [3] 0.069 | [4] -0.012 | [5] -0.018

NPTN (UniProt Q9Y639)
inactive: [1] -0.004 | [2] 0.023 | [3] 0.033 | [4] 0.026 | [5] 0.039

NHEJ1 (UniProt Q9H9Q4)
inactive: [1] -0.008 | [2] 0.043 | [3] 0.131 | [4] -0.179 | [5] -0.041

NMNAT1 (UniProt Q9HAN9)
inactive: [1] 0.1 | [2] -0.055 | [3] -0.088 | [4] 0.304 | [5] 0.02

NQO1 (UniProt P15559)
inactive: [1] 0.07 | [2] 0.122 | [3] 0.083 | [4] -0.015 | [5] -0.072

NPEPPS (UniProt P55786)
inactive: [1] -0.044 | [2] 0.064 | [3] 0.159 | [4] -0.003 | [5] -0.051

NF1 (UniProt P21359)
inactive: [1] -0.075 | [2] 0.078 | [3] 0.137 | [4] -0.015 | [5] -0.134

NFATC4 isoform 2 (UniProt Q14934)
inactive: [1] -0.062 | [2] 0.107 | [3] 0.156 | [4] 0.016 | [5] -0.003

NOL6 (UniProt Q9H6R4)
inactive: [1] -0.029 | [2] -0.174 | [3] -0.128 | [4] 0.128 | [5] 0.035

NMU (UniProt P48645)
inactive: [1] -0.109 | [2] 0.008 | [3] -0.03 | [4] 0.066 | [5] -0.086

NLN (UniProt Q9BYT8)
inactive: [1] -0.001 | [2] 0.03 | [3] 0.012 | [4] -0.054 | [5] -0.013

Copied from the entries so far (two entries):
NMU (UniProt P48645)
inactive: [1] -0.109 | [2] 0.008 | [3] -0.03 | [4] 0.066 | [5] -0.086

NLN (UniProt Q9BYT8)
inactive: [1] -0.001 | [2] 0.03 | [3] 0.012 | [4] -0.054 | [5] -0.013

(continued)

NEMF (UniProt O60524)
inactive: [1] 0.02 | [2] -0.226 | [3] -0.164 | [4] 0.189 | [5] -0.035

NME2P1 (UniProt O60361)
inactive: [1] -0.171 | [2] 0.079 | [3] 0.063 | [4] 0.082 | [5] -0.004

NFIA isoform 4 (UniProt Q12857)
inactive: [1] 0.013 | [2] -0.012 | [3] 0.056 | [4] 0.067 | [5] 0.059

NENF (UniProt Q9UMX5)
inactive: [1] 0.038 | [2] 0.024 | [3] 0 | [4] -0.041 | [5] 0.004

NME6 (UniProt O75414)
inactive: [1] 0.033 | [2] 0.035 | [3] 0.032 | [4] -0.096 | [5] -0.008

NRBF2 (UniProt Q96F24)
inactive: [1] 0.003 | [2] 0.035 | [3] 0.07 | [4] 0.069 | [5] 0.025

NIT1 (UniProt Q86X76)
inactive: [1] 0.029 | [2] 0.01 | [3] -0.023 | [4] -0.001 | [5] 0.047

NPC1L1 (UniProt Q9UHC9)
inactive: [1] 0.183 | [2] 0.063 | [3] 0.024 | [4] 0.007 | [5] 0.047

NFXL1 (UniProt Q6ZNB6)
inactive: [1] -0.023 | [2] -0.03 | [3] 0.084 | [4] -0.009 | [5] -0.066

NNT (UniProt Q13423)
inactive: [1] -0.014 | [2] 0.091 | [3] 0.044 | [4] -0.028 | [5] 0

NPM1 (UniProt P06748)
inactive: [1] 0.086 | [2] -0.273 | [3] -0.265 | [4] 0.203 | [5] 0

NGLY1 (UniProt Q96IV0)
inactive: [1] -0.084 | [2] 0.01 | [3] 0.114 | [4] 0.014 | [5] -0.046
